# Screening data, single-dose tests

Toxoplasma: 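Assay of Toxoplasma gondii numbers, read through their beta-galactosidase reporter with a colour substrate. Compounds at 10 µM. Higher reads as fewer parasites (inferred from which compounds were picked for retests). Size under these conditions: about 67,000 compounds, about 260 of them at 50% or above in at least one test.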
Leishmania in macrophages: 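Cell assay of Leishmania donovani living inside macrophages; the read-out is not stated. Tested at 30 µM. Higher reads as stronger inhibition (inferred: compounds with an IC50 in retests scored well above the rest). About 69,000 compounds were tested under these conditions; 1.5% (about 1,000) showed 50% or more at least once.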

Each number is a percent effect as filed.
How 0% and 100% were set is not recorded. Most values in the screen are low, and negative values occur.
Compounds were drawn at random from those tested, without regard to their results.
Two or more numbers in one place are separate tests of the same structure; such repeats can differ widely.
A dash means the value is not listed here; it may have been measured.

SMILES	Toxoplasma	Leishmania in macrophages
O=C(NCCn1ccnc1)c1cc(Br)c[nH]1	3.294	8.109
Cc1nn(C)c(N2CCOCC2)c1CNC(C)c1ccccn1 (centres unmarked)	20.4	-32.3
CCc1nc(CN(C)C2CCN(CCNS(=O)(=O)CC)C2)no1 (centres unmarked)	16.04	-17.62
CCCC(=O)NCc1cccc(C(=O)OC)c1	-0.7585	28.74
CCCN1CCCC2(CCN(Cc3noc(C4CCCC4)n3)C2)C1=O (centres unmarked)	-0.1655	-0.9158
COc1coc(CN2CCCC(CCc3c(F)cccc3F)C2)cc1=O (centres unmarked)	0.5945	1.147
CC(c1ccc(-n2cncn2)cc1)N(C)Cc1ccccn1 (centres unmarked)	0.7092	17.57
CCOCCCNC(=O)C(NC(=O)Cc1cccs1)c1ccccc1 (centres unmarked)	-23.05	10.4 & -7.463
Cc1cnn(CC2CN(Cc3nc(-c4ccccn4)no3)CCO2)c1 (centres unmarked)	8.898	1.467
COCCCC1(CO)CCCN(Cc2ccc(F)c(OC)c2)C1 (centres unmarked)	0.8645	-28.97
COc1ccc(N(C)C(=O)c2cccc(S(C)(=O)=O)c2)cn1	-7.042	6.17
COc1ccc(C#N)cc1CSCCN1CCOCC1	-2.875	-1.091
CCS(=O)(=O)NCC(=O)N(C1CC1)C1Cc2ccccc2C1	16.53	12.54
N#CC1(C(=O)N2C[C@H](Nc3ccnc(N)n3)[C@@H](C3CC3)C2)CCOCC1	13.3	26.04
Cc1ncncc1C(=O)Nc1cnn(CC(=O)NC2CCCC2)c1	-9.877	5.269
Cc1nn(C)c(N(C)C)c1CNCc1ccc(Cn2cccn2)cc1	8.29	7.273
COc1cccc(CCC(=O)N2CCN(CC(C)(C)O)CC2)c1	0.9811	12
Cc1nc(N2CCOCC2)nc(C)c1NC(=O)COc1ccccc1	10.68	9.19 & 9.99
CCSc1cc(C(=O)NCCNC(=O)Cc2ccccc2)ccn1	-3.401	42.53
O=C(NCCc1c[nH]c2ccc(F)cc12)C1(n2cnnn2)CCCCC1	-20.08	35.62 & -1.353
CCOCCNC(=O)c1cnc(Sc2nccn2C)c(Cl)c1	-2.089	18.11
CCc1cnc(N2CCCC(CCC(N)=O)C2)nc1 (centres unmarked)	41.68	-2.786
O=S1(=O)c2ccccc2OCC2(CCN(CCO)CC2)CN1CC1CC1	-10.64	-7.128
O=C(c1ccc(Cn2ccccc2=O)o1)N1CCSCC1	-20.12	34.1
Cc1ccc(C(=O)Nc2ccc(N(C)C)nc2)n1C	5.116	24.61
Cn1cc(-c2csc(N3CCSCC3)n2)cn1	-11.44	16.72
Cc1c(C(=O)NC(CN2CCCC2=O)c2ccccc2)cnn1C (centres unmarked)	-12	-4.438
Cc1occc1CN(C)Cc1nc2c(cnn2C)c(=O)[nH]1	3.143	1.372
Cc1ccnc(C2(C)CCCN2S(=O)(=O)c2ccccc2)n1 (centres unmarked)	-26.88	-18.13
Cc1nc(C)c(C(=O)N2CCCC(c3cnccn3)C2)s1 (centres unmarked)	1.421	18.75 & 21.76
CCN(CC)C(=O)CSc1nc2c(cnn2CCO)c(=O)[nH]1	4.391	34.95
COCCN1CCN(S(C)(=O)=O)Cc2cccnc21	8.19	-5.442
CNc1ncccc1CN1CCN(C(C)=O)CC(C(N)=O)C1 (centres unmarked)	23.83	-16.61
Cc1ccc(NS(=O)(=O)c2cc3c(c(C(=O)O)c2)OCCO3)c(F)c1	-3.578	-1.604
Cc1cc(CN2CCN(C(=O)c3sccc3C(C)C)CC2)no1	-5.611	14.22
Cn1cc(NC(=O)c2cccc(Cl)c2)c(=O)n(C)c1=O	-1.271	4.322
Cc1cc(N2Cc3cnn(CCO)c3C2)nc(-c2ccccc2)n1	-14.68	-5.028
CCc1nc(CC(=O)N2CCn3c(C)nnc3C2)cs1	-12.41	23.85
Cc1csc(N(C)C(=O)C2CC(=O)N(c3ccccc3F)C2)n1 (centres unmarked)	1.006	21.9
[H][C@@]12CN(Cc3ccccn3)C(=O)N1CCN(C1CCC1)C2	8.85	8.484
Cc1cnc(C(C)(C)NC(=O)NCc2ccon2)s1	1.921	19.43
Cc1nn(C)c(C)c1-c1c(-c2ccccc2)ncn1[C@H](CO)C(=O)O	-0.1873	46.15
COCCOCC(=O)Nc1ccnn1-c1ccc(Cl)cc1	0.922	23.94
Cc1ccnc(N2CCC(OCCN3CCCCC3)C2)n1 (centres unmarked)	-1.418	22.25
CNS(=O)(=O)c1ccc(C(=O)NC2CCc3nc(C)cn3C2)o1 (centres unmarked)	-8.469	25.21
O=C(NCCn1cccc1)C1CCC(=O)N(C2CCCC2)C1 (centres unmarked)	3.994	-1.03
O=C(O)C(F)(F)F.O=C(O)C(F)(F)F.O=C(O)C(F)(F)F.O=C(O)C(F)(F)F.[H][C@@]12CCCO[C@]1([H])[C@H](N(C)Cc1cccnc1)CN2Cc1cnn(C)c1	4.898	-0.5192
Cc1ccc(CN2Cc3ccnn3CC(C(=O)NCC3CC3)C2)o1.O=C(O)C(F)(F)F.O=C(O)C(F)(F)F (centres unmarked)	5.831	4.832
CC1CN(c2ccc(NC(=O)Cn3cccn3)cc2)CCO1 (centres unmarked)	33.83	1.99
Cc1nc(C)n(CC2CCCCN2Cc2cnc(C)s2)n1 (centres unmarked)	7.518	-2.624
COc1ccc(CN2CCc3[nH]nc(C(=O)N(C)C)c3C2)cc1.O=C(O)C(F)(F)F	-23.04	13.58
Cl.Cl.[H][C@@]12OCCC[C@]1([H])NC[C@@H]2NC(=O)c1cccnc1	-1.342	25.82
Cc1cc(-c2ccccc2C(=O)O)nc(C2CCCN2S(C)(=O)=O)n1 (centres unmarked)	-	16.48
CCc1nc2ccccc2c(=O)n1CC1(O)CCN(C(=O)C2CC2)CC1.Cl	0.3648	5.283
CC(C)C[C@H](N)C(=O)N1CC2(CCNCC2)c2cc(Cl)ccc21.Cl.Cl	-28.55	94.41
O=C(C1CC1)N1CCN(Cc2coc(-c3ccc(Cl)cc3)n2)CC1	8.999	47.47
Cn1cncc1-c1nnc([C@H]2CCN(CC(C)(C)C)C2)o1	-5.231	-9.973
CC(C)(C)c1noc(CCC(=O)N2CCNC(=O)C2)n1	3.79	-12.23
Cl.Cn1ncc2c1CCCC2NCc1cc(Br)cs1 (centres unmarked)	0.6497	30.23
COCC1CC2(CCN(C(=O)c3ccc(F)cc3C)CC2)CO1 (centres unmarked)	9.634	18.34
COc1cc(N2CCCC(c3nccn3Cc3cscn3)C2)nc(N)n1 (centres unmarked)	-6.679	37.42
COc1ccc(-c2nc(CNC(C)Cn3cccn3)cs2)cc1 (centres unmarked)	2.015	-36.67

For reference, 3 entries once more:

| SMILES | Toxoplasma | Leishmania in macrophages |
|---|---|---|
| `COc1ccc(-c2nc(CNC(C)Cn3cccn3)cs2)cc1` (centres unmarked) | 2.015 | -36.67 |
| `COc1ccc(C#N)cc1CSCCN1CCOCC1` | -2.875 | -1.091 |
| `Cc1nc(C)c(C(=O)N2CCCC(c3cnccn3)C2)s1` (centres unmarked) | 1.421 | 18.75 & 21.76 |

Data taken from ChEMBL document CHEMBL3988442, “University of Dundee, Small-Polar-MMV Screening Library” (2021).